Results are given in words; binding and its absence hold for the method and conditions named. In cells and extracts the contact can be indirect. Here binding means that the protein was enriched with, or labelled near, the bait; the list need not be complete.
B1: Zinc finger FYVE domain-containing protein 9 (protein, UniProt O95405-1 1-1425)
chain: MENYFQAEAYNLDKVLDEFEQNEDETVSSTLLDTKWNKILDPPSHRLSFNPTLASVNESAVSNESQPQLKVFSLAHSAPLTTEEEDHCANGQDCNLNPEIATMWIDENAVAEDQLIKRNYSWDDQCSAVEVGEKKCGNLACLPDEKNVLVVAVMHNCDKRTLQNDLQDCNNYNSQSLMDAFSCSLDNENRQTDQFSFSINESTEKDMNSEKQMDPLNRPKTEGRSVNHLCPTSSDSLASVCSPSQLKDDGSIGRDPSMSAITSLTVDSVISSQGTDGCPAVKKQENYIPDEDLTGKISSPRTDLGSPNSFSHMSEGILMKKEPAEESTTEESLRSGLPLLLKPDMPNGSGRNNDCERCSDCLVPNEVRADENEGYEHEETLGTTEFLNMTEHFSESQDMTNWKLTKLNEMNDSQVNEEKEKFLQISQPEDTNGDSGGQCVGLADAGLDLKGTCISESEECDFSTVIDTPAANYLSNGCDSYGMQDPGVSFVPKTLPSKEDSVTEEKEIEESKSECYSNIYEQRGNEATEGSGLLLNSTGDLMKKNYLHNFCSQVPSVLGQSSPKVVASLPSISVPFGGARPKQPSNLKLQIPKPLSDHLQNDFPANSGNNTKNKNDILGKAKLGENSATNVCSPSLGNISNVDTNGEHLESYEAEISTRPCLALAPDSPDNDLRAGQFGISARKPFTTLGEVAPVWVPDSQAPNCMKCEARFTFTKRRHHCRACGKVFCASCCSLKCKLLYMDRKEARVCVICHSVLMNAQAWENMMSASSQSPNPNNPAEYCSTIPPLQQAQASGALSSPPPTVMVPVGVLKHPGAEVAQPREQRRVWFADGILPNGEVADAAKLTMNGTSSAGTLAVSHDPVKPVTTSPLPAETDICLFSGSITQVGSPVGSAMNLIPEDGLPPILISTGVKGDYAVEEKPSQISVMQQLEDGGPDPLVFVLNANLLSMVKIVNYVNRKCWCFTTKGMHAVGQSEIVILLQCLPDEKCLPKDIFNHFVQLYRDALAGNVVSNLGHSFFSQSFLGSKEHGGFLYVTSTYQSLQDLVLPTPPYLFGILIQKWETPWAKVFPIRLMLRLGAEYRLYPCPLFSVRFRKPLFGETGHTIMNLLADFRNYQYTLPVVQGLVVDMEVRKTSIKIPSNRYNEMMKAMNKSNEHVLAGGACFNEKADSHLVCVQNDDGNYQTQAISIHNQPRKVTGASFFVFSGALKSSSGYLAKSSIVEDGVMVQITAENMDSLRQALREMKDFTITCGKADAEEPQEHIHIQWVDDDKNVSKGVVSPIDGKSMETITNVKIFHGSEYKANGKVIRWTEVFFLENDDQHNCLSDPADHSRLTEHVAKAFCLALCPHLKLLKEDGMTKLGLRVTLDSDQVGYQAGSNGQPLPSQYMNDLDSALVPVIHGGACQLSEGPVVMELIFYILENIV
B2: Chloride channel CLIC-like protein 1 (protein, UniProt Q96S66-1 19-551)
chain: HDDDWIDPTDMLNYDAASGTMRKSQAKYGISGEKDVSPDLSCADEISECYHKLDSLTYKIDECEKKKREDYESQSNPVFRRYLNKILIEAGKLGLPDENKGDMHYDAEIILKRETLLEIQKFLNGEDWKPGALDDALSDILINFKFHDFETWKWRFEDSFGVDPYNVLMVLLCLLCIVVLVATELWTYVRWYTQLRRVLIISFLFSLGWNWMYLYKLAFAQHQAEVAKMEPLNNVCAKKMDWTGSIWEWFRSSWTYKDDPCQKYYELLLVNPIWLVPPTKALAVTFTTFVTEPLKHIGKGTGEFIKALMKEIPALLHLPVLIIMALAILSFCYGAGKSVHVLRHIGGPESEPPQALRPRDRRRQEEIDYRPDGGAGDADFHYRGQMGPTEQGPYAKTYEGRREILRERDVDLRFQTGNKSPEVLRAFDVPDAEAREHPTVVPSHKSPVLDTKPKETGGILGEGTPKESSTESSQSAKPVSGQDTSGNTEGSPAAEKAQLKSEAAGSPDQGSTYSPARGVAGPRGQDPVSSPCG
B3: Threonylcarbamoyladenosine tRNA methylthiotransferase (protein, UniProt Q5VV42-1 1-579)
chain: MPSASCDTLLDDIEDIVSQEDSKPQDRHFVRKDVVPKVRRRNTQKYLQEEENSPPSDSTIPGIQKIWIRTWGCSHNNSDGEYMAGQLAAYGYKITENASDADLWLLNSCTVKNPAEDHFRNSIKKAQEENKKIVLAGCVPQAQPRQDYLKGLSIIGVQQIDRVVEVVEETIKGHSVRLLGQKKDNGRRLGGARLDLPKIRKNPLIEIISINTGCLNACTYCKTKHARGNLASYPIDELVDRAKQSFQEGVCEIWLTSEDTGAYGRDIGTNLPTLLWKLVEVIPEGAMLRLGMTNPPYILEHLEEMAKILNHPRVYAFLHIPVQSASDSVLMEMKREYCVADFKRVVDFLKEKVPGITIATDIICGFPGETDQDFQETVKLVEEYKFPSLFINQFYPRPGTPAAKMEQVPAQVKKQRTKDLSRVFHSYSPYDHKIGERQQVLVTEESFDSKFYVAHNQFYEQVLVPKNPAFMGKMVEVDIYESGKHFMKGQPVSDAKVYTPSISKPLAKGEVSGLTKDFRNGLGNQLSSGSHTSAASQCDSASSRMVLPMPRLHQDCALRMSVGLALLGLLFAFFVKVYN
B4: Synaptobrevin homolog YKT6 (protein, UniProt O15498-1 1-198)
chain: MKLYSLSVLYKGEAKVVLLKAAYDVSSFSFFQRSSVQEFMTFTSQLIVERSSKGTRASVKEQDYLCHVYVRNDSLAGVVIADNEYPSRVAFTLLEKVLDEFSKQVDRIDWPVGSPATIHYPALDGHLSRYQNPREADPMTKVQAELDETKIILHNTMESLLERGEKLDDLVSKSEVLGTQSKAFYKTARKQNSCCAIM
B5: WW domain-containing oxidoreductase (protein, UniProt Q9NZC7-1 1-414)
chain: MAALRYAGLDDTDSEDELPPGWEERTTKDGWVYYANHTEEKTQWEHPKTGKRKRVAGDLPYGWEQETDENGQVFFVDHINKRTTYLDPRLAFTVDDNPTKPTTRQRYDGSTTAMEILQGRDFTGKVVVVTGANSGIGFETAKSFALHGAHVILACRNMARASEAVSRILEEWHKAKVEAMTLDLALLRSVQHFAEAFKAKNVPLHVLVCNAATFALPWSLTKDGLETTFQVNHLGHFYLVQLLQDVLCRSAPARVIVVSSESHRFTDINDSLGKLDFSRLSPTKNDYWAMLAYNRSKLCNILFSNELHRRLSPRGVTSNAVHPGNMMYSNIHRSWWVYTLLFTLARPFTKSMQQGAATTVYCAAVPELEGLGGMYFNNCCRCMPSPEAQSEETARTLWALSERLIQERLGSQSG
B6: Clathrin interactor 1 (protein, UniProt Q14677-3 1-643)
chain: MLNMWKVRELVDKATNVVMNYSEIESKVREATNDDPWGPSGQLMGEIAKATFMYEQFPELMNMLWSRMLKDNKKNWRRVYKSLLLLAYLIRNGSERVVTSAREHIYDLRSLENYHFVDEHGKDQGINIRQKVKELVEFAQDDDRLREERKKAKKNKDKYVGVSSDSVGGFRYSERYDPEPKSKWDEEWDKNKSAFPFSDKLGELSDKIGSTIDDTISKFRRKDREDSPERCSDSDEEKKARRGRSPKGEFKDEEETVTTKHIHITQATETTTTRHKRTANPSKTIDLGAAAHYTGDKASPDQNASTHTPQSSVKTSVPSSKSSGDLVDLFDGTSQSTGGSADLFGGFADFGSAAASGSFPSQVTATSGNGDFGDWSAFNQAPSGPVASSGEFFGSASQPAVELVSGSQSALGPPPAASNSSDLFDLMGSSQATMTSSQSMNFSMMSTNTVGLGLPMSRSQPLQNVSTVLQKPNPLYNQNTDMVQKSVSKTLPSTWSDPSVNISLDNLLPGMQPSKPQQPSLNTMIQQQNMQQPMNVMTQSFGAVNLSSPSNMLPVRPQTNALIGGPMPMSMPNVMTGTMGMAPLGNTPMMNQSMMGMNMNIGMSAAGMGLTGTMGMGMPNIAMTSGTVQPKQDAFANFANFSK
B7: Dehydrogenase/reductase SDR family member 13 (protein, UniProt Q6UX07-1 26-377)
chain: PPCGGMGNLRGRTAVVTGANSGIGKMTALELARRGARVVLACRSQERGEAAAFDLRQESGNNEVIFMALDLASLASVRAFATAFLSSEPRLDILIHNAGISSCGRTREAFNLLLRVNHIGPFLLTHLLLPCLKACAPSRVVVVASAAHCRGRLDFKRLDRPVVGWRQELRAYADTKLANVLFARELANQLEATGVTCYAAHPGPVNSELFLRHVPGWLRPLLRPLAWLVLRAPRGGAQTPLYCALQEGIEPLSGRYFANCHVEEVPPAARDDRAAHRLWEASKRLAGLGPGEDAEPDEDPQSEDSEAPSSLSTPHPEEPTVSQPYPSPQSSPDLSKMTHRIQAKVEPEIQLS
B8: Catenin delta-1 (protein, UniProt O60716-1 1-968)
chain: MDDSEVESTASILASVKEQEAQFEKLTRALEEERRHVSAQLERVRVSPQDANPLMANGTLTRRHQNGRFVGDADLERQKFSDLKLNGPQDHSHLLYSTIPRMQEPGQIVETYTEEDPEGAMSVVSVETSDDGTTRRTETTVKKVVKTVTTRTVQPVAMGPDGLPVDASSVSNNYIQTLGRDFRKNGNGGPGPYVGQAGTATLPRNFHYPPDGYSRHYEDGYPGGSDNYGSLSRVTRIEERYRPSMEGYRAPSRQDVYGPQPQVRVGGSSVDLHRFHPEPYGLEDDQRSMGYDDLDYGMMSDYGTARRTGTPSDPRRRLRSYEDMIGEEVPSDQYYWAPLAQHERGSLASLDSLRKGGPPPPNWRQPELPEVIAMLGFRLDAVKSNAAAYLQHLCYRNDKVKTDVRKLKGIPVLVGLLDHPKKEVHLGACGALKNISFGRDQDNKIAIKNCDGVPALVRLLRKARDMDLTEVITGTLWNLSSHDSIKMEIVDHALHALTDEVIIPHSGWEREPNEDCKPRHIEWESVLTNTAGCLRNVSSERSEARRKLRECDGLVDALIFIVQAEIGQKDSDSKLVENCVCLLRNLSYQVHREIPQAERYQEAAPNVANNTGPHAASCFGAKKGKDEWFSRGKKPIEDPANDTVDFPKRTSPARGYELLFQPEVVRIYISLLKESKTPAILEASAGAIQNLCAGRWTYGRYIRSALRQEKALSAIADLLTNEHERVVKAASGALRNLAVDARNKELIGKHAIPNLVKNLPGGQQNSSWNFSEDTVISILNTINEVIAENLEAAKKLRETQGIEKLVLINKSGNRSEKEVRAAALVLQTIWGYKELRKPLEKEGWKKSDFQVNLNNASRSQSSHSYDDSTLPLIDRNQKSDKKPDREEIQMSNMGSNTKSLDNNYSTPNERGDHNRTLDRSGDLGDMEPLKGTTPLMQDEGQESLEEELDVLVLDDEGGQVSYPSMQKI

Protein sequences, listed by entry. Tags and fused reporters are not part of them.
UniProt Q8IWT6: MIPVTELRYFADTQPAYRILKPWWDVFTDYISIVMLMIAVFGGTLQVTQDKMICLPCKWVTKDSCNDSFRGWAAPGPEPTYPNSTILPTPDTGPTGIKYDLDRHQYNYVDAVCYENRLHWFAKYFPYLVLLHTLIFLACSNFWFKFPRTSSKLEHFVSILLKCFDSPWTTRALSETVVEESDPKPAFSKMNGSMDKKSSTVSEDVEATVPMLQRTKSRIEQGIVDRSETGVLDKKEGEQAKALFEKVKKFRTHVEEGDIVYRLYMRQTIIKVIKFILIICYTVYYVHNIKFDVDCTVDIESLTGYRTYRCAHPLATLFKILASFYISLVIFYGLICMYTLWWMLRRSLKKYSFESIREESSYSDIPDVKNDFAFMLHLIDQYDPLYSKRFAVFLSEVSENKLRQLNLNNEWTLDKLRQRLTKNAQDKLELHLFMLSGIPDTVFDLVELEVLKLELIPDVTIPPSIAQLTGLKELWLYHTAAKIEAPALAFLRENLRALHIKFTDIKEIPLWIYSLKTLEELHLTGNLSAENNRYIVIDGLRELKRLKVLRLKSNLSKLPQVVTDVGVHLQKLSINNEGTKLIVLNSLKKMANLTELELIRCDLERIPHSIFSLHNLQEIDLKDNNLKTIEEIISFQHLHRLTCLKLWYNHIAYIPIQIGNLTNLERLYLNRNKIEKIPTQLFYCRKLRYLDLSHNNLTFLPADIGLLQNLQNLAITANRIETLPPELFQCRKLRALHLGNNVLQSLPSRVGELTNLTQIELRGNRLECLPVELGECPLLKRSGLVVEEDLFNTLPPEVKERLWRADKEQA

target: LRRC8A-BirA*-HA fusion protein (human) (UniProt Q8IWT6); experiment: proximity labelling; BioID: HEK293 cells stably expressing LRRC8A-BirA*-HA (two clones), 50 uM biotin 24 h, RIPA lysis, streptavidin bead pull-down of biotinylated proteins, TMT labelling and LC-MS/MS; hits: FDR <= 0.05 and fold change >= 2 against the no-biotin control

binding, binds:
B1
B2
B3
B4
B5
B6
B7
B8

— article PMC11193767
